# Library screen at single concentrations

The values are deposited in ChEMBL (CHEMBL3988442, “University of Dundee, Small-Polar-MMV Screening Library” (2021)).

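Phenotypic screen: M. tuberculosis growth, glucose 7H9 medium, 3 days; the read-out is not stated. Tested at 50 µM. Higher reads as more growth inhibition (inferred: compounds with an IC50 in retests scored well above the rest). About 69,000 compounds were tested under these conditions; 1.1% (about 760) showed 50% or more at least once.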

The filed quantity is “Percent Effect” (%). The controls that fix the scale are not given in the record; negative values are as filed. The compounds are a random part of those screened. Two or more numbers in one place are separate tests of the same structure; such repeats can differ widely.

structure | percent effect
Cc1noc(CN2CCN(CC(C)O)CC2)n1 (stereo not shown) | 13%
Cc1csc2ncc(-c3ccnc(N4CCC[C@@H]4CO)n3)c(=O)n12 | 20.33%
CCOC1CCCN(C(=O)c2[nH]nc(C3CC3)c2Br)C1 (stereo not shown) | 9.689%
CN(C)S(=O)(=O)c1ccc(CNC(=O)C2CC2)cc1 | -14.09% and -4.489%
CCN(CC1CCOCC1)C(=O)CCNC(=O)c1ccccc1F | 7.971%
O=C(O)C(F)(F)F.O=C(c1cnc2ccccc2c1)N1CCC2(CCN2c2ncccn2)C1 (stereo not shown) | -28.45%
CN(CCCc1cc(-c2ccccc2)n[nH]1)C(=O)CCCn1cncn1 | 0.6842%
O=C(NCC(O)COc1ccccc1)Nc1nncs1 (stereo not shown) | -0.8109%
CC(C#N)CN(C)C(=O)CCNC(=O)OCC(F)(F)F (stereo not shown) | 15.91%
Cc1cc(C(=O)Nc2cnn(CC(F)(F)F)c2)nc(N(C)C)n1 | 8.578%
CN(Cc1ccc(Cl)s1)C(=O)CN1CC(n2cccn2)C1 | 6.539%
COc1cc(N2CC3(CCN(c4ncccn4)C3)C2)ncn1 | -30.77% and -1.402%
Cc1csc(NC(=O)CN2CCc3c(nc(C4CC4)n3C)C2)n1 | 0.6208%
Cc1c[nH]nc1C1CCN(C(=O)Cn2cccn2)C1 (stereo not shown) | 4.067%
NC(=O)C1CCN(Cc2csc(-c3ncccn3)n2)CC1 | -10.39%
CS(=O)(=O)N1CCc2[nH]nc(Cc3cccs3)c2C1 | 14.59%
O=C(C1CCOC1)N1CC[C@@H](O)[C@@H]1Cc1ccccc1 (stereo partly shown) | -2.314%
CO[C@H]1C[C@@H](O)C12CCN(C(=O)CCCOc1ccccc1)CC2 | 3.331%
O=C(CCn1cccn1)N1CCC(c2nnc(-c3ccccn3)o2)CC1 | -0.4545%
Cc1nc(C)n(C2CCCN(C(=O)Cc3csc(C(C)C)n3)C2)n1 (stereo not shown) | -6.758%
Cc1ccc(N2CCC3(CCN(C(=O)c4ccoc4)CC3)CC2)nn1.O=C(O)C(F)(F)F | 10.57%
O=C(NCCN1CCCCC1)c1nc(-c2cccc3[nH]ccc23)no1 | 12.66%
[H][C@]12CCN(C(=O)Cc3cccs3)C[C@@]1([H])OCCN(S(C)(=O)=O)C2 | 2.99%
CCOc1ccc(C#N)cc1NC(=O)N1CCOC(C(N)=O)C1 (stereo not shown) | 0.643%
Cc1cc(C)n(C2CN(Cc3noc(-c4ccccc4)n3)C2)n1 | -2.257%
COc1ccccc1OCCN1CCCC(c2noc(C3CC3)n2)C1 (stereo not shown) | -7.158%
Cc1csc2c(=O)n3c(nc12)CCN(C(=O)c1ccccn1)CC3 | -2.16%
CC(C)c1noc(CCC(=O)NC(C)c2nnc3n2CCCCC3)n1 (stereo not shown) | 5.86%
O=C(C1SCCc2sccc21)N1CC(O)C1 (stereo not shown) | -0.6092% and -15.76%
[H][C@@]12CN(c3ccc(C)nn3)C[C@]1([H])OCCN2Cc1c(C)noc1C | -19.79%
CC(C)CN1CCC(NC(=O)NCCC(=O)NCc2ccccc2)CC1 | -14.59% and -2.285%
CN1CC(c2ccccc2)CC12CCN(C(=O)c1ccc(Cl)cc1)CC2 (stereo not shown) | 16.92%
COCCNC(=O)c1ccc2c(=O)n3c(nc2c1)CCN(C)CC3 | -23.56%
COc1ccc(C2SC(C)=Nc3c2c(=O)[nH]n3C2CCCC2)cc1O (stereo not shown) | -0.257%
CCCn1nc(C)c2c1NC(=O)CC2c1ccc(CN2CCCC2)s1 (stereo not shown) | 23.28%
CC(=O)c1ccccc1-c1cc(C(=O)O)cc(S(=O)(=O)NC(C)C)c1 | -14.61% and -2.624%
CN1CCCC(c2cccc(-c3ccccc3F)n2)C1 (stereo not shown) | 18.22%
CN(CCc1cn[nH]c1)C(=O)C1CC(=O)N(Cc2ccccn2)C1 (stereo not shown) | -16.36%
O=C(O)C(F)(F)F.[H][C@@]12CCCO[C@]1([H])[C@H](NC(=O)c1cnn(C)c1)CN2CC1CCOCC1 | 3.286% and -0.309%
CCn1ccnc1C1CCN(Cc2cccc(C)n2)CC1 | 9.448% and 1.535%
O=C(Cn1ccc(C(=O)O)n1)Nc1c(Cl)cccc1Cl | 13.77%
O=C(O)CC(O)(CC(=O)O)C(=O)O.c1ccc([C@@H]2CN(Cc3cccnc3)C[C@H]2c2cc[nH]n2)cc1 | 27.08%
CN(Cc1ccc(CCC(C)(C)O)cc1)Cc1cccc(O)c1 | 19.72%
COc1ccc(CN(C(=O)C2CCOCC2)c2ccncc2)cc1 | 9.496% and 7.038%
CC(c1ccc(S(C)(=O)=O)cc1)N(C)C(=O)c1ccccc1I (stereo not shown) | -12.57%
OCCN1CCCCC1c1cc[nH]n1 (stereo not shown) | 3.969%
CN1CC(=O)N(c2ccccc2)CC12CCN(C(=O)c1ccnnc1)C2.O=C(O)C(F)(F)F (stereo not shown) | -32.34%
CC(NC(=O)N1CCC1)c1ccc(S(C)(=O)=O)cc1 (stereo not shown) | -13.34%
Cn1nc(C#N)c2c1CN(C(=O)c1ccsc1)CCC2 | 4.211% and 19.24%
O=C(O)C(F)(F)F.O=C(O)C(F)(F)F.[H][C@]12COC[C@@H](N(C)C)[C@@]1([H])CN(Cc1ccc3c(c1)OCO3)C2 | -2.206% and -8.11%
COc1ccc(S(=O)(=O)C(F)(F)F)cc1NC(=O)CSC | -2.469% and 13.13%
O=C(O)C(F)(F)F.O=C1COC2(CCN(Cc3ccoc3)CC2)CN1CCn1cccn1 | -8.184% and -2.56%

Once more, the final 6:

* CN1CC(=O)N(c2ccccc2)CC12CCN(C(=O)c1ccnnc1)C2.O=C(O)C(F)(F)F (stereo not shown) : -32.34%
* CC(NC(=O)N1CCC1)c1ccc(S(C)(=O)=O)cc1 (stereo not shown) : -13.34%
* Cn1nc(C#N)c2c1CN(C(=O)c1ccsc1)CCC2 : 4.211% and 19.24%
* O=C(O)C(F)(F)F.O=C(O)C(F)(F)F.[H][C@]12COC[C@@H](N(C)C)[C@@]1([H])CN(Cc1ccc3c(c1)OCO3)C2 : -2.206% and -8.11%
* COc1ccc(S(=O)(=O)C(F)(F)F)cc1NC(=O)CSC : -2.469% and 13.13%
* O=C(O)C(F)(F)F.O=C1COC2(CCN(Cc3ccoc3)CC2)CN1CCn1cccn1 : -8.184% and -2.56%